Results on 22 sequences are retold here after patent US20120065254.

Chains of the proteins cited; added tags and fusions are not shown. Chains listed by the source or under a name are the forms on record and can include a tag or linker.
human complement C5 (Homo sapiens), one chain, as listed by the source: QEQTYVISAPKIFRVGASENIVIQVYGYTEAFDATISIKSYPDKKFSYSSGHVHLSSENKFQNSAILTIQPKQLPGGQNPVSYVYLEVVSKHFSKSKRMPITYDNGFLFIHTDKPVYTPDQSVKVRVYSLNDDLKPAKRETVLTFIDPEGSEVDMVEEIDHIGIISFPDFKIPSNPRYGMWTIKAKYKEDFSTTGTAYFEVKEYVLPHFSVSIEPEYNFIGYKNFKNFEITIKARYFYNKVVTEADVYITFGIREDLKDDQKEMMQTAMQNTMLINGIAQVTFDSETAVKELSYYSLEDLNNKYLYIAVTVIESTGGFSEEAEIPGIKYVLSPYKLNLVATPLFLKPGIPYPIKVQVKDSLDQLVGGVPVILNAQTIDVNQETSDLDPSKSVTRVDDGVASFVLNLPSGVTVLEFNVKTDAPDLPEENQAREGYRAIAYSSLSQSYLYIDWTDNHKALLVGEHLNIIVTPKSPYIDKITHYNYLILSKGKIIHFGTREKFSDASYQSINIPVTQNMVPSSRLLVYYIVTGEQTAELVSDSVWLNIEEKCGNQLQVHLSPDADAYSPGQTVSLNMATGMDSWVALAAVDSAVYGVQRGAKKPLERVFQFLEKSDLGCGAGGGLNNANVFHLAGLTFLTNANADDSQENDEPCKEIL

Construct, isoform or probe ends are uncertain for at least one entry. For part of these data: A weaker result is weaker than the reference pair of the same experiment. For part of these data: Protein sequences can lack the tags named with them.

The target of data set [1] is T1, human C5a (L-form) (Homo sapiens) (UniProt P01031).
T1 sequence: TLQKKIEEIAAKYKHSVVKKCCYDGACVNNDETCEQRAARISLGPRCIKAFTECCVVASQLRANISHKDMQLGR
In words: SPR. The conditions noted are these: purified recombinant protein, mirror-image nucleic acid.

The test system of data set [2] is human complement C5 (Homo sapiens). Description: SPR. The conditions noted are these: L-RNA [all (L-RNA)]; improved C5 binding over 179-A3-014; purified native protein; protein details: from human plasma, Sigma C3160; mirror-image nucleic acid; letters built from the parent sequence and the stated change; variant of 179-A3-014 Spiegelmer.
Data set [3] relates to T2, His6-macC5a (macaque C5a) (Macaca mulatta).
T2 sequence: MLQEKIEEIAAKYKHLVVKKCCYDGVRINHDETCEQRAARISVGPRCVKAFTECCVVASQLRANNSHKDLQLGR
In words: activity in cells. To be noted: L-RNA, purified recombinant protein, protein details: His6, E. coli BL21, mirror-image nucleic acid.

Data set [4] deals with T1, human C5a (L-form) (Homo sapiens). Description: activity in cells. The conditions noted are these: L-RNA; inhibits chemotaxis of U937 cells to 0.1 nM C5a; purified recombinant protein; protein details: Sigma C5788; synthetic backbone; mirror-image nucleic acid.
[5] abbreviates: L-RNA [all (L-RNA)], derivatives slightly declined vs 182-E5, protein details: recombinant, Sigma C5788 for SPR and in vivo, letters built from the parent sequence and the stated change, variant of 182-E5 Spiegelmer.
The mark [6] stands for this setting: L-RNA [all (L-RNA)], range given for all 182-D5 derivatives, protein details: recombinant, Sigma C5788 for SPR and in vivo, letters built from the parent sequence and the stated change, variant of 182-D5 Spiegelmer.
Setting [7] is: L-RNA [all (L-RNA)], slightly declined vs 185-H3-014, protein details: recombinant, Sigma C5788 for SPR and in vivo, letters built from the parent sequence and the stated change, variant of 185-H3-001 Spiegelmer.
Where [8] appears, read: L-RNA [all (L-RNA)], range for 182-E6-002 and -003, protein details: recombinant, Sigma C5788 for SPR and in vivo, letters built from the parent sequence and the stated change, variant of 182-E6 Spiegelmer.
Where [9] appears, read: L-RNA, 37 C, Mg, Ca, protein details: recombinant, Sigma C5788 for SPR and in vivo.
Where [10] appears, read: 10 nM blocked chemotaxis by 1 and 3 nM macaque C5a.

In the case of “ACUGCGUUCGGACGUGGCAUGUUCCUUGACAAACGGUUGGCAGU [182-E5-010]”, in data set [1] (setting [5]), the binding result was “binds more weakly”.

On to “CUGCAAGACGCCGAAUAGGACCGAAGUGUAGAAUCGUGCAG [182-D5-004]”, for which the binding result in data set [1] (setting [6]) was “binds”.

In the case of “GCCGGGUGUUUACUUGCUUAAUAGGGGCCGGC [185-H3-018]”, the binding result in data set [1] (setting [7]) is “binds more weakly”.

“GCGGCGUUCGGACGUGGCAUGUUCCUUGACAAACGGUUGGCCGC [182-E5-007]”: in data set [1] (setting [5]), the binding result is “binds more weakly”.

Take “GCUGCAAGACGCCGAAUAGGACCGAAGUGUAGAAUCGUGCAGC [182-D5-003]”: the binding result in data set [1] (setting [6]) was “binds”.

Regarding “GCUGCGUUCGGACGUGGCAUGUUCCUUGACAAACGGUUGGCAGC [182-E5-013]”, in data set [1] (setting [5]), the binding result is “binds more weakly”.

Turning to “GCUGGGUUCGGACGUGGCAUGUUCCUUGAUAAACGGUUGCCAGC [182-E5-014]”, the binding result in data set [1] (setting [5]) is recorded as “binds more weakly”.

With “GCUGUCAGACGCCGAACAGGUCGCAUUGCGAAGAAUCGGGCAGC [182-E6-003]”, the binding result in data set [1] (setting [8]) is recorded as “binds”.

In the case of “GGCCGAAGACGCCGCGUAGGACCCAAUGGGUAGAAUCGGCGGCC [179-A3-050]”, the binding result in data set [1] (L-RNA [all (L-RNA)], 37 C, Mg, Ca, protein details: recombinant, Sigma C5788 for SPR and in vivo, letters built from the parent sequence and the stated change, variant of 179-A3-014 Spiegelmer) is listed as “binds”; in data set [2], “binds”.

For the sequence “GGCUGAACACGCCGCGUAGGACCAAUGGUAGAAUGGGCAGCC [179-A3-047]”, in data set [1] (L-RNA [all L-RNA], 37 C, called C5a binding nucleic acid, protein details: Sigma C5788, synthetic backbone, letters built from the parent sequence and the stated change), the binding result is given as “binds”.

Regarding “GGCUGAACACGCCGCGUAGGACCCAAUGGGUAGAAUGGGCAGCC [179-A3-014 Spiegelmer]”, the binding result in data set [1] (L-RNA, 37 C, 1 mM MgCl2, 1 mM CaCl2, protein details: recombinant, Sigma C5788 for SPR and in vivo, variant of 179-A3 Spiegelmer) is recorded as “binds”.

Turning to “GGGGCGUGUUUACUUGCUUAAUAGGGAGCCCC [185-H3-019]”, in data set [1] (setting [7]), the binding result was “binds more weakly”.

As for “GUACUGCGUUCGGACGUGGCAUGUUCCUUGACAAACGGUUGGCAGU [182-E5-015]”, the binding result in data set [1] (setting [5]) is recorded as “binds more weakly”.

Consider “GUACUGCGUUCGGACGUGGCAUGUUCCUUGACAAACGGUUGGCAGUAC [182-E5 Spiegelmer]”, for which, in data set [1] (L-RNA, protein details: recombinant, Sigma C5788 for SPR and in vivo), the binding result is recorded as “binds”. For the same sequence, the “functional effect of the aptamer” value in data set [3] (only weak inhibition, dose not given here) is “less active”.

On to “GUGCUGCAAGACGCCGAAUAGGACCGAAGUGUAGAAUCGUGCAGCAC [182-D5 Spiegelmer]”, for which the binding result in data set [1] (setting [9]) is reported as “binds”. Besides, the “functional effect of the aptamer” value in data set [3] (setting [10]) and in data set [4] was “active” in each case.

As for “GUGCUGGACAGGACCAAGGUAAGGGCGGACCGAAAAACCUAGCAGCAC [182-A5 Spiegelmer]”, the binding result in data set [1] (setting [9]) is “binds”. For the same sequence, the “functional effect of the aptamer” value in data set [3] (setting [10]) and in data set [4] was “active” each time.

For “GUGCUGGGUUCGGACGUGGCAUGUUCCUUGAUAAACGGUUGCCAGCAC [182-E5-016]”, in data set [1] (setting [5]), the binding result is “binds more weakly”.

As for “GUGCUGUCAGACGCCGAACAGGUCGCAUUGCGAAGAAUCGGGCAGCAC [182-E6 Spiegelmer]”, the binding result in data set [1] (setting [9]) is reported as “binds”. Moreover, the “functional effect of the aptamer” value in data set [3] (setting [10]) and in data set [4] was “active” throughout.

“UACUGCGUUCGGACGUGGCAUGUUCCUUGACAAACGGUUGGCAGUA [182-E5-009]”: in data set [1] (setting [5]), the binding result is reported as “binds more weakly”.

Consider “UACUGCGUUCGGACGUGGCAUGUUCCUUGACAAACGGUUGGCAGUAC [182-E5-011]”, for which the binding result in data set [1] (setting [5]) was “binds more weakly”.

In the case of “UGCUGCAAGACGCCGAAUAGGACCGAAGUGUAGAAUCGUGCAGCA [182-D5-002]”, in data set [1] (setting [6]), the binding result is given as “binds”.

For “UGCUGUCAGACGCCGAACAGGUCGCAUUGCGAAGAAUCGGGCAGCA [182-E6-002]”, the binding result in data set [1] (setting [8]) was “binds”.
